Measured values taken from the supplement of paper PMC6411743.
± gives the standard deviation of the averaged measurements. The list shows a part of the results, in another mix than the full data. Most values lie at the level of the controls, where differences are scatter.

Chains of the proteins cited; added tags and fusions are not shown. Lines headed by an entry give the natural chain unless they say otherwise; changes in a name come on top.
UniProt Q96N67: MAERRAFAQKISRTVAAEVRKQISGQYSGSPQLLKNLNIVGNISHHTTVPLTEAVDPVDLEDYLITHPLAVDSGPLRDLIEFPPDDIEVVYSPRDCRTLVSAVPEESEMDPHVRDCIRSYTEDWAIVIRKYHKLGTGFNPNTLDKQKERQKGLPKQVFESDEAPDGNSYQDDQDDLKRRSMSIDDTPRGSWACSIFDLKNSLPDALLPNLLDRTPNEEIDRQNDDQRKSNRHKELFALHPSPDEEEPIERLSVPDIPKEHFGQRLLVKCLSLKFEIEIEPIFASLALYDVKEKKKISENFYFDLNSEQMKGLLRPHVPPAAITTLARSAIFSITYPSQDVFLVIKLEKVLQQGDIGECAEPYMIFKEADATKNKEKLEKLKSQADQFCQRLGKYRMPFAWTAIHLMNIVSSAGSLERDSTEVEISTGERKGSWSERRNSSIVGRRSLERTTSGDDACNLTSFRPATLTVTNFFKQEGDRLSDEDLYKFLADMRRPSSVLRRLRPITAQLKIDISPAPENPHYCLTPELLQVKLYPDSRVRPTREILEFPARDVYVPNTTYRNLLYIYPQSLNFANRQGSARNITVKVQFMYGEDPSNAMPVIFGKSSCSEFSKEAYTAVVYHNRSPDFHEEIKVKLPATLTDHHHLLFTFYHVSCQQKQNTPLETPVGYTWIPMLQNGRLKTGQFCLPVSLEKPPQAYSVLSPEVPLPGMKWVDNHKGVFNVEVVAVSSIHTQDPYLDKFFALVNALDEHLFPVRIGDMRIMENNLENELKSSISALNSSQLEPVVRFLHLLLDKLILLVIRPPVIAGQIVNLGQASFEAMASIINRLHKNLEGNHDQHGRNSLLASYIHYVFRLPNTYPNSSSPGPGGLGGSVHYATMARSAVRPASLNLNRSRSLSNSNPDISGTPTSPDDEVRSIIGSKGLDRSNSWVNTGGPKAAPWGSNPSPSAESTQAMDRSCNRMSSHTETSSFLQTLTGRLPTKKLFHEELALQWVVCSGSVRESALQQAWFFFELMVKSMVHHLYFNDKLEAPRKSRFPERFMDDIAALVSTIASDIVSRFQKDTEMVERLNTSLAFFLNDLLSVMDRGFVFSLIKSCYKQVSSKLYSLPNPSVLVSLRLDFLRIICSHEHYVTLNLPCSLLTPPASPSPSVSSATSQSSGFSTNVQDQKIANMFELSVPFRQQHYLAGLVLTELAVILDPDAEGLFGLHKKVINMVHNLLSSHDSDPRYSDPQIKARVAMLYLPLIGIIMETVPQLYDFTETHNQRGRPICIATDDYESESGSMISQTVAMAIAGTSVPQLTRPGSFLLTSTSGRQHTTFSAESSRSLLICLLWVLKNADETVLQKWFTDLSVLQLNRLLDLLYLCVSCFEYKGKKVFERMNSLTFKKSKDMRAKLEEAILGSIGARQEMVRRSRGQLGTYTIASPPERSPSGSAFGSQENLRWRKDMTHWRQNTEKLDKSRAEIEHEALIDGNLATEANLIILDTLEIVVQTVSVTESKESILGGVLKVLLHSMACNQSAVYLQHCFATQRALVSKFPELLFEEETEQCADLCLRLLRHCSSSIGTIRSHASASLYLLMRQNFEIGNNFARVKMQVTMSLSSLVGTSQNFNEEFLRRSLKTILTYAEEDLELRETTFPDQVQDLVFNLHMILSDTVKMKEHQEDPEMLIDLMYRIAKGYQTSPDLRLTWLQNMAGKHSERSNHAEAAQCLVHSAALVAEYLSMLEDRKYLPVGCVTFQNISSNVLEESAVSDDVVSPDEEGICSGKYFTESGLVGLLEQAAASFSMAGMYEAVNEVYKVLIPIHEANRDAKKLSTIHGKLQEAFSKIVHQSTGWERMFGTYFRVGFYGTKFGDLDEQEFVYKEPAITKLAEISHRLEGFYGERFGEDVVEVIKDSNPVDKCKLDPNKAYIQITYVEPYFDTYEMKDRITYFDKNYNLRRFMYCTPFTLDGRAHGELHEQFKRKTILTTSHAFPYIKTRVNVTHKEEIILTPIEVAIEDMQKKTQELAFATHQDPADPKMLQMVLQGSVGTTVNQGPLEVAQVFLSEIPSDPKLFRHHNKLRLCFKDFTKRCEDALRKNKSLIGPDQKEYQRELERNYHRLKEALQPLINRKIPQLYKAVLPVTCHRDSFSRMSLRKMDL
UniProt Q8WXB1: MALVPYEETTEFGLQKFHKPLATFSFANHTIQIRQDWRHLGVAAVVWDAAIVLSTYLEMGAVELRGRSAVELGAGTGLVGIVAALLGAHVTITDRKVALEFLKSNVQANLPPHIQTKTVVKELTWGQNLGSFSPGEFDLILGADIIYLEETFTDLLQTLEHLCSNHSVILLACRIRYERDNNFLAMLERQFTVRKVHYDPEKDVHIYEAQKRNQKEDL
UniProt Q96MX0: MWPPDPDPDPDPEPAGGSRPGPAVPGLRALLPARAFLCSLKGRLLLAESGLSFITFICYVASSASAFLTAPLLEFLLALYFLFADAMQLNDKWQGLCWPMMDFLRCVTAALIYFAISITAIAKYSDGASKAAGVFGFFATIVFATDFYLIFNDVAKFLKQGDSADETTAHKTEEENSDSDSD
UniProt O14641: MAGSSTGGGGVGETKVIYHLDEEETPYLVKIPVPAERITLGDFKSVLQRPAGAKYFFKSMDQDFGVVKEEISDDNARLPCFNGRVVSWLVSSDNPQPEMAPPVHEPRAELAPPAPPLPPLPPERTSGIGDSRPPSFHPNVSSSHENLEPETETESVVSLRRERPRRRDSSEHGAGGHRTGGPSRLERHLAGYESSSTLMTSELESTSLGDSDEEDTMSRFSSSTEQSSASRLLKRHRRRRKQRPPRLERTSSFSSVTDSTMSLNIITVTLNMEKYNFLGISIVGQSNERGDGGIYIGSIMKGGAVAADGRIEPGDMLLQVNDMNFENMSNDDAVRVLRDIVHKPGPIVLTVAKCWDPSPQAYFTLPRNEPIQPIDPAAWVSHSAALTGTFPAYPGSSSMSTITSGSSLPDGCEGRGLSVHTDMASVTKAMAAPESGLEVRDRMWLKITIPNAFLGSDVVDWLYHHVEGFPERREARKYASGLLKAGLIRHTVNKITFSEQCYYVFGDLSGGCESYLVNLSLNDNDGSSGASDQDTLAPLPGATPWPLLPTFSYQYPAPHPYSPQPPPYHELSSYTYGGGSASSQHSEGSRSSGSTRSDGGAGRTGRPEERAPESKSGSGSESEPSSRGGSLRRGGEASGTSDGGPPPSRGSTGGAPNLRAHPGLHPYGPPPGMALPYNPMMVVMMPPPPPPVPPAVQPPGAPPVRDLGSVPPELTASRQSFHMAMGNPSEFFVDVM
UniProt Q96FV2: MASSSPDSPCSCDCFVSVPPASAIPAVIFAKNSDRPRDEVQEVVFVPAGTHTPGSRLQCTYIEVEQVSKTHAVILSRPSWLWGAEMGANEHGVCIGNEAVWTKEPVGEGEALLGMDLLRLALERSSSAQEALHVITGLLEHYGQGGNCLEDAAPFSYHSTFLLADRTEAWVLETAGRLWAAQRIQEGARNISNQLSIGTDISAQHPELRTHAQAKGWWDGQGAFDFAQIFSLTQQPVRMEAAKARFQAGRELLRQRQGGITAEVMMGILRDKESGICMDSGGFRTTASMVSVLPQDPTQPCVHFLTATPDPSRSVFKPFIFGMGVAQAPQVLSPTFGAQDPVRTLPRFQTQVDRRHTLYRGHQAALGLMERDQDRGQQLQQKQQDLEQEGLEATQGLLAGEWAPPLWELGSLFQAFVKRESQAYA
UniProt Q8NCP5: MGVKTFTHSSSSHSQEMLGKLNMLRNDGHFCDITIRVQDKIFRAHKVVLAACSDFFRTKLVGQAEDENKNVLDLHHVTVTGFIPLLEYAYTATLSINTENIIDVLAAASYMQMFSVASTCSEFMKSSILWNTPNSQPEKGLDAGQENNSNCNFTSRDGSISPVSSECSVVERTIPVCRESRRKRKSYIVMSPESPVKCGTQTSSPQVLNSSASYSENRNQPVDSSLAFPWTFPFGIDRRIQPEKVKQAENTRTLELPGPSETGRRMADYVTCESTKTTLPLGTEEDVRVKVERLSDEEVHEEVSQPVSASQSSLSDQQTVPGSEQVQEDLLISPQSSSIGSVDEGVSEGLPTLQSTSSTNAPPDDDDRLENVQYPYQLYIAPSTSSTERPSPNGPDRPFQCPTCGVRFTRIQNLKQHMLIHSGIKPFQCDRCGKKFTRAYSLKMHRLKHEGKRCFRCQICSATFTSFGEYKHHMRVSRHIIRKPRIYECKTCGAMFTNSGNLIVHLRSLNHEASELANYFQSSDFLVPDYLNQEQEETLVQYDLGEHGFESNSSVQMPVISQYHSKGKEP
UniProt Q9BQF6: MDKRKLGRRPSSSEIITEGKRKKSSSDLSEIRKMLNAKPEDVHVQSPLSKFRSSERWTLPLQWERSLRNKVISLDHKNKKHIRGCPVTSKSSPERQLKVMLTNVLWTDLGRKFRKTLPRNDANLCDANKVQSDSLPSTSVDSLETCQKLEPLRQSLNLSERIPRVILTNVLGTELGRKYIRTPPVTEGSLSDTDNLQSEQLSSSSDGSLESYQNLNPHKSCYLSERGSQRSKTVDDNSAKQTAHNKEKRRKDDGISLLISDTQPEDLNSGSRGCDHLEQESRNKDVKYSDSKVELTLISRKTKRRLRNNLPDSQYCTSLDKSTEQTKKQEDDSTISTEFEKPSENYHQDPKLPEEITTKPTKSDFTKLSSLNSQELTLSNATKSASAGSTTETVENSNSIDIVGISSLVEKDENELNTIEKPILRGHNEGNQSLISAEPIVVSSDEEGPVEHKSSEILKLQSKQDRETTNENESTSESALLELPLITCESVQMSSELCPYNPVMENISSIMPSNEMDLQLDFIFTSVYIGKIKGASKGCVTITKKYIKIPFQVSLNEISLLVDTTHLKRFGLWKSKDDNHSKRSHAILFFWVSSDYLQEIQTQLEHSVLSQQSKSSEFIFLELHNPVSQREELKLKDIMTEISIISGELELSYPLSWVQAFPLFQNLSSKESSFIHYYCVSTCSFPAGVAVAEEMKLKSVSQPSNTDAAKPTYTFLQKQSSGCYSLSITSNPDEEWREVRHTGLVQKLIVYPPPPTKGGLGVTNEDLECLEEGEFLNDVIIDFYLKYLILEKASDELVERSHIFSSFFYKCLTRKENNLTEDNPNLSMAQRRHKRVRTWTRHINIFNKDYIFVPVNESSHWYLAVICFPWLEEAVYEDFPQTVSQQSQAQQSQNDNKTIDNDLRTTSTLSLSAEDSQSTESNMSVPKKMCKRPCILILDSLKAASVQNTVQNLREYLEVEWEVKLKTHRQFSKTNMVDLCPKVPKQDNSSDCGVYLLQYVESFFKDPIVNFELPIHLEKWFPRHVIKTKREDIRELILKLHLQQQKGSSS
UniProt Q9H0H0, whole entry: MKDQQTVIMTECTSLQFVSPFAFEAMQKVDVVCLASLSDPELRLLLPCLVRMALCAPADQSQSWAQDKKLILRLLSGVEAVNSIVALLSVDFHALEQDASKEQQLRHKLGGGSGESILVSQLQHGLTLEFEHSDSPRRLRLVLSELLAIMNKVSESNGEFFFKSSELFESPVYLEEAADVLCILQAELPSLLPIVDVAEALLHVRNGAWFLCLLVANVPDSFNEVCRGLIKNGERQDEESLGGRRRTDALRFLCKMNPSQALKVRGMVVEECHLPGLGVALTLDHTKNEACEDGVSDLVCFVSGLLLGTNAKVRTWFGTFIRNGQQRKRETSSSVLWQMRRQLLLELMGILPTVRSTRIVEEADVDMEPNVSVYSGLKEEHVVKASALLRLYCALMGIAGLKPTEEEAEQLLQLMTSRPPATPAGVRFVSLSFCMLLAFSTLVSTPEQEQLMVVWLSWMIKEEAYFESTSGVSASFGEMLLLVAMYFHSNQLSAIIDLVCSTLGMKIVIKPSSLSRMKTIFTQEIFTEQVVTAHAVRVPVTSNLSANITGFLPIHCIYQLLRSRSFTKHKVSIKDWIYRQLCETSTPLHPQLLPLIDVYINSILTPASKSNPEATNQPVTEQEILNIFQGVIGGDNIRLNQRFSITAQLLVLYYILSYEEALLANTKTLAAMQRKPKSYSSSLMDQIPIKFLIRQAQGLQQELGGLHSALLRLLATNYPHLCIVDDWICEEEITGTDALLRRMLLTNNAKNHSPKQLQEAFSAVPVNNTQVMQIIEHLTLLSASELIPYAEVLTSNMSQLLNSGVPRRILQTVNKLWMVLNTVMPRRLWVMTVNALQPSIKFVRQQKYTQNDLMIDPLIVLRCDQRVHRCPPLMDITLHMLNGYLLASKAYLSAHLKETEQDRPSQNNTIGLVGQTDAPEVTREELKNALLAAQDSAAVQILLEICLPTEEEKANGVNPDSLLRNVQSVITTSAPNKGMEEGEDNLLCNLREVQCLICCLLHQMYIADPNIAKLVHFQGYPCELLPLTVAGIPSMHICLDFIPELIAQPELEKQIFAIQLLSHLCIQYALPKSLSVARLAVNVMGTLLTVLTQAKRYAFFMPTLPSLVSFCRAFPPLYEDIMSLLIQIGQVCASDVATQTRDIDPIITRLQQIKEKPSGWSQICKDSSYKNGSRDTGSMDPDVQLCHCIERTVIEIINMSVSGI

Compound: Nc1ncnc2c1ncn2[C@@H]1O[C@H](COP(=O)(O)OP(=O)(O)NP(=O)(O)O)[C@@H](O)[C@H]1O [adenylyl imidodiphosphate]
Test: NP40-soluble protein abundance relative to vehicle (solubility fold change) (ratio); higher = more soluble protein in presence of AMP-PNP
Summary of the method: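 Each value is a fold change relative to the detergent-processed vehicle, calculated per replicate from vsn-normalised intensities. Jurkat crude lysate received eight concentrations (0.1 to 10 mM) for 10 min at room temperature and 3 min at 37 °C, then was solubilised in 0.8% NP40 with benzonase (60 min, 4 °C). The ultracentrifuged supernatant was TMT-labelled and run by LC-MS/MS in three independent experiments.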

Target | NP40-soluble protein abundance (concentration: 0.1mM) | NP40-soluble protein abundance (concentration: 0.5mM)
J3KNV1 and related entries (UniProt O60281) | 1.03 ± 0.02 | 0.991 ± 0.032
J3QK89 and related entries (UniProt Q8IWX8) | 1.04 ± 0.032 | 1.05 ± 0.032
G5E9L0 and related entries (UniProt Q8N6H7) | 0.994 ± 0.027 | 0.988 ± 0.034
J3KPH8 and related entries (UniProt Q8WUI4) | 1.01 ± 0.047 | 0.968 ± 0.043
J3KP06 and related entries (UniProt Q8WWI1) | 1.02 ± 0.051 | 1.05 ± 0.021
J3KNF4 (UniProt O14618) | 1 ± 0.012 | 0.991 ± 0.049
G3V5T9 and related entries (UniProt P24941) | 1.01 ± 0.0079 | 0.989 ± 0.037
H0Y362 and related entries (UniProt Q8NEW0) | 1.02 ± 0.029 | 0.995 ± 0.012
J3QR77 and related entries (UniProt Q15762) | 0.9857 ± 0.0085 | 1.01 ± 0.049
G3XAC1 and related entries (UniProt Q9BXS9) | 1.01 ± 0.024 | 0.955 ± 0.023
J3KQ32 and related entries (UniProt Q9NTK5) | 0.9771 ± 0.0097 | 0.989 ± 0.042
H0Y7L2 and related entries (UniProt Q96N67) | 1.01 ± 0.021 | 0.977 ± 0.038
H0YGR4 and related entries (UniProt Q9Y3B8) | 0.963 ± 0.013 | 1.03 ± 0.05
H7BXF5 and related entries (UniProt Q9H0E3) | 1.01 ± 0.013 | 1.02 ± 0.044
H7BYY1 and related entries (UniProt P09493) | 1.03 ± 0.064 | 1.17 ± 0.15
J3KR97 and related entries (UniProt Q9BTW9) | 1.02 ± 0.049 | 1.02 ± 0.085
I6L8A6 and related entries (UniProt Q99708) | 0.948 ± 0.025 | 0.965 ± 0.041
I3L1A3 and related entries (UniProt O76021) | 0.9969 ± 0.0073 | 1.07 ± 0.047
G8JLB3 and related entries (UniProt Q9Y606) | 1.01 ± 0.034 | 0.982 ± 0.023
J3KTA4 and related entries (UniProt P17844) | 0.935 ± 0.14 | 1.05 ± 0.046
J3KNN7 and related entries (UniProt Q7Z569) | 1.01 ± 0.021 | 0.979 ± 0.014
I3L3Z2 and related entries (UniProt Q9BRA0) | 0.988 ± 0.041 | 0.997 ± 0.017
J3KNA0 and related entries (UniProt Q15070) | 1.02 ± 0.025 | 0.977 ± 0.039
J3KP27 and related entries (UniProt Q9Y296) | 1.04 ± 0.013 | 0.988 ± 0.052

Target | NP40-soluble protein abundance (concentration: 0.1mM) | NP40-soluble protein abundance (concentration: 0.5mM)
G3V532 and related entries (UniProt O75843) | 0.988 ± 0.021 | 0.974 ± 0.063
G3V4K3 and related entries (UniProt Q9H9C1) | 0.993 ± 0.006 | 0.961 ± 0.038
I3L3Q7 and related entries (UniProt Q07021) | 0.731 ± 0.26 | 0.93 ± 0.17
H7BXC7 and related entries (UniProt Q9H7P9) | 1.03 ± 0.025 | 1.003 ± 0.0097
H0YLF8 and related entries (UniProt P50213) | 1.03 ± 0.034 | 0.999 ± 0.017
H0YLM8 and related entries (UniProt Q8TDJ6) | 0.97 ± 0.043 | 0.947 ± 0.05
H3BVG0 and related entries (UniProt Q8N1F7) | 0.9952 ± 0.0057 | 0.99 ± 0.019
G3XAH6 and related entries (UniProt P51003) | 0.98 ± 0.036 | 0.984 ± 0.021
H7BXH9 and related entries (UniProt Q8WXB1) | 1.052 ± 0.0031 | 1.02 ± 0.079
J3KP26 and related entries (UniProt Q86W74) | 0.999 ± 0.018 | 0.985 ± 0.063
H0Y5C6 and related entries (UniProt P21333) | 0.972 ± 0.022 | 0.983 ± 0.029
H3BQ24 and related entries (UniProt Q9Y2M0) | 0.934 ± 0.047 | 0.943 ± 0.18
H7BXD5 and related entries (UniProt P28676) | 1.04 ± 0.05 | 1.025 ± 0.0003
I3L3C2 and related entries (UniProt Q96MX0) | 0.958 ± 0.026 | 0.973 ± 0.05
H0YKS8 and related entries (UniProt Q08431) | 1.07 ± 0.022 | 1 ± 0.015
H0YBR0 and related entries (UniProt Q96Q05) | 1.12 ± 0.23 | 0.945 ± 0.034
H1UBN3 and related entries (UniProt O95067+H1UBN3) | 0.992 ± 0.043 | 0.99 ± 0.017
J3QKK3 and related entries (UniProt O43502) | 0.963 ± 0.017 | 0.965 ± 0.047
H3BLZ8 (UniProt Q92841) | 1.02 ± 0.035 | 1.01 ± 0.067
G3V5N8 and related entries (UniProt Q9HBF4) | 0.973 ± 0.034 | 0.963 ± 0.031
H0YJI2 and related entries (UniProt Q15643) | 0.977 ± 0.032 | 0.972 ± 0.025
J3QRU4 and related entries (UniProt P63027+L7N2F9+J3QRU4) | 0.965 ± 0.028 | 0.995 ± 0.032
I3L2N2 and related entries (UniProt O14641) | 0.982 ± 0.043 | 0.999 ± 0.068
H0YNU5 and related entries (UniProt P54132) | 1.016 ± 0.0062 | 1.01 ± 0.02

Target | NP40-soluble protein abundance (concentration: 0.1mM) | NP40-soluble protein abundance (concentration: 0.5mM)
J3KQ34 and related entries (UniProt Q9H9Q2) | 0.972 ± 0.058 | 0.984 ± 0.088
H3BQM0 and related entries (UniProt Q8NDF8) | 0.979 ± 0.025 | 0.97 ± 0.013
H0Y473 and related entries (UniProt O75354) | 0.992 ± 0.021 | 0.982 ± 0.028
J3KR35 and related entries (UniProt Q8WUD4) | 0.993 ± 0.049 | 1.07 ± 0.078
I3L0L6 and related entries (UniProt Q9H6Y7) | 1.1 ± 0.1 | 1.05 ± 0.053
H3BSS6 and related entries (UniProt Q9H2Y7) | 0.998 ± 0.017 | 1.01 ± 0.019
J9JID7 and related entries (UniProt Q03252) | 0.98 ± 0.029 | 1.01 ± 0.08
J3KNF5 and related entries (UniProt O15078) | 0.979 ± 0.026 | 0.967 ± 0.016
J3KNW7 and related entries (UniProt Q9Y592) | 1.008 ± 0.0047 | 0.997 ± 0.011
H3BPB8 and related entries (UniProt P34949) | 1.01 ± 0.013 | 1.02 ± 0.018
G3XAJ6 and related entries (UniProt Q14699) | 0.976 ± 0.029 | 0.959 ± 0.016
H0YL70 and related entries (UniProt Q04726) | 1.02 ± 0.038 | 0.973 ± 0.035
J3QLS3 and related entries (UniProt Q9Y2R9) | 1.03 ± 0.038 | 1.01 ± 0.017
H3BLT9 and related entries (UniProt Q7RTR2) | 0.952 ± 0.034 | 0.977 ± 0.032
H7C1J8 and related entries (UniProt P51991) | 1.09 ± 0.11 | 1.11 ± 0.087
H3BLV9 and related entries (UniProt Q96SB4) | 1.04 ± 0.025 | 1.02 ± 0.037
G5E9A6 and related entries (UniProt P51784) | 1.03 ± 0.041 | 0.989 ± 0.067
H0YAR2 and related entries (UniProt P11940) | 0.972 ± 0.018 | 1.02 ± 0.039
H7C3D5 and related entries (UniProt Q8NC44) | 0.991 ± 0.044 | 0.989 ± 0.038
H0Y9Z5 and related entries (UniProt Q96LI5) | 0.9805 ± 0.0035 | 0.973 ± 0.059
J3QL71 and related entries (UniProt Q96FV2) | 1.03 ± 0.064 | 1.05 ± 0.069
G5E9Z2 and related entries (UniProt Q96KA5) | 1.022 ± 0.01 | 1.03 ± 0.037
H3BM14 and related entries (UniProt Q9Y5A7) | 0.977 ± 0.022 | 0.971 ± 0.01
J3KN59 and related entries (UniProt Q12982) | 1.01 ± 0.062 | 1.08 ± 0.075

Whole records from above. Order of values: NP40-soluble protein abundance (concentration: 0.1mM) | NP40-soluble protein abundance (concentration: 0.5mM)
J3QR77 and related entries (UniProt Q15762) as listed: 0.9857 ± 0.0085 | 1.01 ± 0.049
H7BXD5 and related entries (UniProt P28676) as listed: 1.04 ± 0.05 | 1.025 ± 0.0003
G8JLB3 and related entries (UniProt Q9Y606) as listed: 1.01 ± 0.034 | 0.982 ± 0.023

Further results.

Target | NP40-soluble protein abundance (concentration: 0.1mM) | NP40-soluble protein abundance (concentration: 0.5mM)
H0YEM9 and related entries (UniProt Q8NCP5) | 1.021 ± 0.0035 | 1.015 ± 0.0089
H3BP20 and related entries (UniProt P06865) | 1.01 ± 0.064 | 0.999 ± 0.088
H0YEL0 and related entries (UniProt O14893) | 0.976 ± 0.023 | 0.971 ± 0.032
J3KQL8 and related entries (UniProt Q9BQE5) | 0.995 ± 0.023 | 0.956 ± 0.029
H7BYY2 and related entries (UniProt Q6W2J9) | 0.994 ± 0.03 | 0.946 ± 0.09
H0YIP2 and related entries (UniProt P49642) | 0.978 ± 0.017 | 0.991 ± 0.012
J3KTA1 and related entries (UniProt Q96IG2) | 1.03 ± 0.038 | 0.996 ± 0.046
G5E9C0 and related entries (UniProt Q9HB58) | 0.9794 ± 0.0089 | 1.02 ± 0.026
J3KN16 and related entries (UniProt Q5VYK3+J3KN16) | 1.01 ± 0.017 | 1 ± 0.027
I3L0U5 and related entries (UniProt Q6PK04) | 0.9958 ± 0.0071 | 1.01 ± 0.038
J3QR07 and related entries (UniProt Q96MU7) | 1.01 ± 0.058 | 1.04 ± 0.072
H6UMI1 and related entries (UniProt O95166) | 1 ± 0.045 | 1.043 ± 0.0052
H3BP28 and related entries (UniProt Q99807) | 0.991 ± 0.043 | 0.992 ± 0.059
H0YJF3 and related entries (UniProt Q13686) | 0.9856 ± 0.0083 | 1.012 ± 0.0084
H0YKD8 and related entries (UniProt P46779) | 1.05 ± 0.03 | 1.05 ± 0.029
J3QT09 and related entries (UniProt Q9BQF6) | 0.983 ± 0.05 | 0.9976 ± 0.0032
H3BRB6 and related entries (UniProt Q8ND25) | 1.02 ± 0.036 | 0.988 ± 0.025
J3KMZ7 and related entries (UniProt Q9H0H0) | 1.02 ± 0.034 | 1.02 ± 0.025
H0Y8P4 and related entries (UniProt Q8TED0) | 1.02 ± 0.079 | 1.01 ± 0.014
H3BSW6 and related entries (UniProt Q2VPK5) | 0.998 ± 0.0094 | 0.98 ± 0.033
J3QKT3 and related entries (UniProt P32322) | 0.996 ± 0.059 | 1.03 ± 0.062
J3KS94 and related entries (UniProt P02686) | 0.97 ± 0.015 | 1.01 ± 0.083

Copied from the list.
Under NP40-soluble protein abundance (concentration: 0.5mM), J3KQ34 and related entries (UniProt Q9H9Q2) is entered as 0.984 ± 0.088
Under NP40-soluble protein abundance (concentration: 0.1mM), H7C1J8 and related entries (UniProt P51991) is entered as 1.09 ± 0.11
